This is one part of the list.
Legend:
Test in all cases: glycan array binding signal (z-score within array); higher = stronger binding
Details in all cases: glycan notation: IUPAC condensed, linker removed
[1] = target: Gal(b1-4)GlcNAc(b1-3)Gal(b1-4)GlcNAc(b1-6)[Gal(b1-3)]GalNAc
In short: (§1)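 Glycan array binding is given as a within-array Z-score, which can be read as non-binding when negative. The arrays, 3228 of them, came from the Consortium for Functional Glycomics database and were retained only where the protein sequence was available. Z-scores were averaged across arrays of the same protein sequence at different concentrations or buffers and across linkers.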

[2] = target: Gal(b1-4)GlcNAc(b1-3)Gal(b1-4)[Fuc(a1-3)]GlcNAc(b1-3)Gal(b1-4)[Fuc(a1-3)]GlcNAc
In short: as §1

[3] = target: Gal(b1-4)GlcNAc(b1-3)GalNAc
In short: as §1

[4] = target: Gal(b1-4)GlcNAc(b1-3)[Fuc(a1-3)GlcNAc(b1-6)]Gal(b1-4)Glc
In short: as §1

[5] = target: Gal(b1-4)GlcNAc(b1-3)[Gal(b1-4)GlcNAc(b1-6)]Gal(b1-4)GlcNAc
In short: as §1

[6] = target: Gal(b1-4)GlcNAc(b1-3)[GlcNAc(b1-6)]Gal(b1-4)GlcNAc
In short: as §1

[7] = target: Gal(b1-4)GlcNAc(b1-6)Gal(b1-4)GlcNAc
In short: as §1

[8] = target: Gal(b1-4)GlcNAc(b1-6)GalNAc
In short: as §1

[9] = target: Gal(b1-4)GlcNAc(b1-6)[Gal(b1-3)]GalNAc
In short: as §1

[10] = target: Gal(b1-4)GlcNAc(b1-6)[Gal(b1-4)GlcNAc(b1-3)]GalNAc
In short: as §1

Gal(b1-4)GlcNAc6P = target: Gal(b1-4)GlcNAc6P
In short: as §1

Gal(b1-6)Gal = target: Gal(b1-6)Gal
In short: as §1

Gal3S(b1-3)GalNAc = target: Gal3S(b1-3)GalNAc
In short: as §1

Gal3S(b1-3)GlcNAc = target: Gal3S(b1-3)GlcNAc
In short: as §1

[11] = target: Gal3S(b1-3)[Fuc(a1-4)]GlcNAc
In short: as §1

Gal3S(b1-4)Glc = target: Gal3S(b1-4)Glc
In short: as §1

Gal3S(b1-4)Glc6S = target: Gal3S(b1-4)Glc6S
In short: as §1

Gal3S(b1-4)GlcNAc = target: Gal3S(b1-4)GlcNAc
In short: as §1

[12] = target: Gal3S(b1-4)[Fuc(a1-3)]Glc6S
In short: as §1

[13] = target: Gal3S(b1-4)[Fuc(a1-3)]GlcNAc
In short: as §1

[14] = target: Gal3S(b1-4)[Fuc(a1-3)]GlcNAc6S
In short: as §1

Gal3S4S(b1-4)GlcNAc = target: Gal3S4S(b1-4)GlcNAc
In short: as §1

Gal3S6S(b1-4)GlcNAc = target: Gal3S6S(b1-4)GlcNAc
In short: as §1

Gal3S6S(b1-4)GlcNAc6S = target: Gal3S6S(b1-4)GlcNAc6S
In short: as §1

Gal4S(b1-4)GlcNAc = target: Gal4S(b1-4)GlcNAc
In short: as §1

Gal4S6S(b1-4)GlcNAc = target: Gal4S6S(b1-4)GlcNAc
In short: as §1

Gal6P(b1-4)GlcNAc = target: Gal6P(b1-4)GlcNAc
In short: as §1

Gal6S(b1-3)GlcNAc = target: Gal6S(b1-3)GlcNAc
In short: as §1

Gal6S(b1-3)GlcNAc6S = target: Gal6S(b1-3)GlcNAc6S
In short: as §1

Gal6S(b1-4)Glc = target: Gal6S(b1-4)Glc
In short: as §1

Gal6S(b1-4)Glc6S = target: Gal6S(b1-4)Glc6S
In short: as §1

Gal6S(b1-4)GlcNAc = target: Gal6S(b1-4)GlcNAc
In short: as §1

Gal6S(b1-4)GlcNAc6S = target: Gal6S(b1-4)GlcNAc6S
In short: as §1

GalNAc(a1-3)Gal = target: GalNAc(a1-3)Gal
In short: as §1

GalNAc(a1-3)GalNAc = target: GalNAc(a1-3)GalNAc
In short: as §1

[15] = target: GalNAc(a1-3)GalNAc(b1-3)Gal(a1-4)Gal(b1-4)Glc
In short: as §1

[16] = target: GalNAc(a1-3)GalNAc(b1-3)Gal(a1-4)Gal(b1-4)GlcNAc
In short: as §1

GalNAc(b1-3)Gal = target: GalNAc(b1-3)Gal
In short: as §1

[17] = target: GalNAc(b1-3)Gal(a1-4)Gal(b1-4)GlcNAc
In short: as §1

[18] = target: GalNAc(b1-3)Gal(a1-4)Gal(b1-4)GlcNAc(b1-3)Gal(b1-4)Glc
In short: as §1

[19] = target: GalNAc(b1-3)Gal(a1-6)Gal(b1-4)Glc
In short: as §1

GalNAc(b1-3)GalNAc = target: GalNAc(b1-3)GalNAc
In short: as §1

GalNAc(b1-3)GlcNAc = target: GalNAc(b1-3)GlcNAc
In short: as §1

GalNAc(b1-4)Gal(b1-4)Glc = target: GalNAc(b1-4)Gal(b1-4)Glc
In short: as §1

GalNAc(b1-4)GlcNAc = target: GalNAc(b1-4)GlcNAc
In short: as §1

B1: EULS2 M3 (Oryza sativa) (protein)
chain: MVYCRANPNYAMTARNGAVVLAPANPKDEYQHWIKDMRWSTSIKDEEGYPAFALVNKATGQAIKHSLGQSHPVRLVPYNPEVMDESVLWTESRDVGNGFRCIRMVNNIYLNFDAFHGDKYHGGVRDGTDIVLWKLCEGDSLRWKIQPYYILEQKLISEEDLNSAVDHHHHHH
- glycan array binding signal (z-score) [1]: -0.879
- glycan array binding signal (z-score) [2]: -0.108
- glycan array binding signal (z-score) [3]: -0.373
- glycan array binding signal (z-score) [4]: -0.301
- glycan array binding signal (z-score) [5]: -0.214
- glycan array binding signal (z-score) [6]: -0.582
- glycan array binding signal (z-score) [7]: 0.139
- glycan array binding signal (z-score) [8]: -0.559
- glycan array binding signal (z-score) [9]: -0.033
- glycan array binding signal (z-score) [10]: -0.34
- glycan array binding signal (z-score) (Gal(b1-4)GlcNAc6P): -0.655
- glycan array binding signal (z-score) (Gal(b1-6)Gal): -0.323
- glycan array binding signal (z-score) (Gal3S(b1-3)GalNAc): -0.664
- glycan array binding signal (z-score) (Gal3S(b1-3)GlcNAc): -0.178
- glycan array binding signal (z-score) [11]: -0.125
- glycan array binding signal (z-score) (Gal3S(b1-4)Glc): 0.605
- glycan array binding signal (z-score) (Gal3S(b1-4)Glc6S): 0.657
- glycan array binding signal (z-score) (Gal3S(b1-4)GlcNAc): 1.26
- glycan array binding signal (z-score) [12]: -0.615
- glycan array binding signal (z-score) [13]: -0.349
- glycan array binding signal (z-score) [14]: 2.11
- glycan array binding signal (z-score) (Gal3S4S(b1-4)GlcNAc): -1.22
- glycan array binding signal (z-score) (Gal3S6S(b1-4)GlcNAc): -0.857
- glycan array binding signal (z-score) (Gal3S6S(b1-4)GlcNAc6S): -0.157
- glycan array binding signal (z-score) (Gal4S(b1-4)GlcNAc): -0.469
- glycan array binding signal (z-score) (Gal4S6S(b1-4)GlcNAc): 0.053
- glycan array binding signal (z-score) (Gal6P(b1-4)GlcNAc): -0.078
- glycan array binding signal (z-score) (Gal6S(b1-3)GlcNAc): -0.51
- glycan array binding signal (z-score) (Gal6S(b1-3)GlcNAc6S): -0.209
- glycan array binding signal (z-score) (Gal6S(b1-4)Glc): -0.176
- glycan array binding signal (z-score) (Gal6S(b1-4)Glc6S): -0.599
- glycan array binding signal (z-score) (Gal6S(b1-4)GlcNAc): -0.256
- glycan array binding signal (z-score) (Gal6S(b1-4)GlcNAc6S): -0.204
- glycan array binding signal (z-score) (GalNAc(a1-3)Gal): -0.616
- glycan array binding signal (z-score) (GalNAc(a1-3)GalNAc): 0.278
- glycan array binding signal (z-score) [15]: -0.29
- glycan array binding signal (z-score) [16]: 0.125
- glycan array binding signal (z-score) (GalNAc(b1-3)Gal): 2.46
- glycan array binding signal (z-score) [17]: -0.413
- glycan array binding signal (z-score) [18]: -0.835
- glycan array binding signal (z-score) [19]: 0.011
- glycan array binding signal (z-score) (GalNAc(b1-3)GalNAc): 0.575
- glycan array binding signal (z-score) (GalNAc(b1-3)GlcNAc): 0.363
- glycan array binding signal (z-score) (GalNAc(b1-4)Gal(b1-4)Glc): 0.053
- glycan array binding signal (z-score) (GalNAc(b1-4)GlcNAc): 0.011

— the supplement of paper PMC8728848
